Laboratory results: the supplement of paper PMC8728848
The other results are listed elsewhere or left out.

Experiments:
Assay in all cases: glycan array binding signal (z-score within array); higher = stronger binding
Details in all cases: glycan notation: IUPAC condensed, linker removed
[1] = target: Gal(b1-4)GlcNAc(b1-2)Man(a1-6)[Man(a1-3)]Man(b1-4)GlcNAc(b1-4)GlcNAc
Method in brief: (§1)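 Glycan array binding is given as a within-array Z-score, which can be read as non-binding when negative. The arrays, 3228 of them, came from the Consortium for Functional Glycomics database and were retained only where the protein sequence was available. Z-scores were averaged across arrays of the same protein sequence at different concentrations or buffers and across linkers.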

[2] = target: Gal(b1-4)GlcNAc(b1-2)[Gal(b1-4)GlcNAc(b1-4)]Man(a1-3)[Gal(b1-4)GlcNAc(b1-2)Man(a1-6)]Man(b1-4)GlcNAc(b1-4)GlcNAc
Method in brief: as §1

[3] = target: Gal(b1-4)GlcNAc(b1-2)[Gal(b1-4)GlcNAc(b1-4)]Man(a1-3)[Gal(b1-4)GlcNAc(b1-2)[Gal(b1-4)GlcNAc(b1-6)]Man(a1-6)]Man(b1-4)GlcNAc(b1-4)GlcNAc
Method in brief: as §1

[4] = target: Gal(b1-4)GlcNAc(b1-2)[Gal(b1-4)GlcNAc(b1-4)]Man(a1-3)[GlcNAc(b1-4)][Gal(b1-4)GlcNAc(b1-2)Man(a1-6)]Man(b1-4)GlcNAc(b1-4)GlcNAc
Method in brief: as §1

[5] = target: Gal(b1-4)GlcNAc(b1-2)[Gal(b1-4)GlcNAc(b1-4)]Man(a1-3)[GlcNAc(b1-4)][Gal(b1-4)GlcNAc(b1-2)[Gal(b1-4)GlcNAc(b1-6)]Man(a1-6)]Man(b1-4)GlcNAc(b1-4)GlcNAc
Method in brief: as §1

[6] = target: Gal(b1-4)GlcNAc(b1-2)[Gal(b1-4)GlcNAc(b1-6)]Man(a1-6)[Gal(b1-4)GlcNAc(b1-2)Man(a1-3)]Man(b1-4)GlcNAc(b1-4)GlcNAc
Method in brief: as §1

[7] = target: Gal(b1-4)GlcNAc(b1-2)[Gal(b1-4)GlcNAc(b1-6)]Man(a1-6)[Gal(b1-4)GlcNAc(b1-2)Man(a1-3)]Man(b1-4)GlcNAc(b1-4)[Fuc(a1-6)]GlcNAc
Method in brief: as §1

[8] = target: Gal(b1-4)GlcNAc(b1-2)[Gal(b1-4)GlcNAc(b1-6)]Man(a1-6)[GlcNAc(b1-4)][Gal(b1-4)GlcNAc(b1-2)Man(a1-3)]Man(b1-4)GlcNAc(b1-4)GlcNAc
Method in brief: as §1

[9] = target: Gal(b1-4)GlcNAc(b1-2)[Gal(b1-4)GlcNAc(b1-6)]Man(a1-6)[GlcNAc(b1-4)][Gal(b1-4)GlcNAc(b1-2)[Gal(b1-4)GlcNAc(b1-4)]Man(a1-3)]Man(b1-4)GlcNAc(b1-4)[Fuc(a1-6)]GlcNAc
Method in brief: as §1

[10] = target: Gal(b1-4)GlcNAc(b1-3)Gal(b1-3)GalNAc
Method in brief: as §1

[11] = target: Gal(b1-4)GlcNAc(b1-3)Gal(b1-3)GlcNAc
Method in brief: as §1

[12] = target: Gal(b1-4)GlcNAc(b1-3)Gal(b1-4)Glc
Method in brief: as §1

[13] = target: Gal(b1-4)GlcNAc(b1-3)Gal(b1-4)GlcNAc
Method in brief: as §1

[14] = target: Gal(b1-4)GlcNAc(b1-3)Gal(b1-4)GlcNAc(b1-2)Man(a1-3)[Gal(b1-4)GlcNAc(b1-3)Gal(b1-4)GlcNAc(b1-2)Man(a1-6)]Man(b1-4)GlcNAc(b1-4)GlcNAc
Method in brief: as §1

[15] = target: Gal(b1-4)GlcNAc(b1-3)Gal(b1-4)GlcNAc(b1-2)Man(a1-3)[Gal(b1-4)GlcNAc(b1-3)Gal(b1-4)GlcNAc(b1-2)Man(a1-6)]Man(b1-4)GlcNAc(b1-4)[Fuc(a1-6)]GlcNAc
Method in brief: as §1

[16] = target: Gal(b1-4)GlcNAc(b1-3)Gal(b1-4)GlcNAc(b1-2)[Gal(b1-4)GlcNAc(b1-3)Gal(b1-4)GlcNAc(b1-6)]Man(a1-6)[Gal(b1-4)GlcNAc(b1-3)Gal(b1-4)GlcNAc(b1-2)Man(a1-3)]Man(b1-4)GlcNAc(b1-4)GlcNAc
Method in brief: as §1

[17] = target: Gal(b1-4)GlcNAc(b1-3)Gal(b1-4)GlcNAc(b1-2)[Gal(b1-4)GlcNAc(b1-3)Gal(b1-4)GlcNAc(b1-6)]Man(a1-6)[Gal(b1-4)GlcNAc(b1-3)Gal(b1-4)GlcNAc(b1-2)Man(a1-3)]Man(b1-4)GlcNAc(b1-4)[Fuc(a1-6)]GlcNAc
Method in brief: as §1

[18] = target: Gal(b1-4)GlcNAc(b1-3)Gal(b1-4)GlcNAc(b1-3)Gal(b1-4)GlcNAc
Method in brief: as §1

[19] = target: Gal(b1-4)GlcNAc(b1-3)Gal(b1-4)GlcNAc(b1-3)Gal(b1-4)GlcNAc(b1-2)Man(a1-3)[Gal(b1-4)GlcNAc(b1-3)Gal(b1-4)GlcNAc(b1-3)Gal(b1-4)GlcNAc(b1-2)Man(a1-6)]Man(b1-4)GlcNAc(b1-4)GlcNAc
Method in brief: as §1

[20] = target: Gal(b1-4)GlcNAc(b1-3)Gal(b1-4)GlcNAc(b1-3)Gal(b1-4)GlcNAc(b1-2)Man(a1-3)[Gal(b1-4)GlcNAc(b1-3)Gal(b1-4)GlcNAc(b1-3)Gal(b1-4)GlcNAc(b1-2)Man(a1-6)]Man(b1-4)GlcNAc(b1-4)[Fuc(a1-6)]GlcNAc
Method in brief: as §1

[21] = target: Gal(b1-4)GlcNAc(b1-3)Gal(b1-4)GlcNAc(b1-3)Gal(b1-4)GlcNAc(b1-2)[Gal(b1-4)GlcNAc(b1-3)Gal(b1-4)GlcNAc(b1-3)Gal(b1-4)GlcNAc(b1-6)]Man(a1-6)[Gal(b1-4)GlcNAc(b1-3)Gal(b1-4)GlcNAc(b1-3)Gal(b1-4)GlcNAc(b1-2)Man(a1-3)]Man(b1-4)GlcNAc(b1-4)[Fuc(a1-6)]GlcNAc
Method in brief: as §1

[22] = target: Gal(b1-4)GlcNAc(b1-3)Gal(b1-4)GlcNAc(b1-3)Gal(b1-4)GlcNAc(b1-3)Gal(b1-4)GlcNAc(b1-2)Man(a1-3)[Gal(b1-4)GlcNAc(b1-3)Gal(b1-4)GlcNAc(b1-3)Gal(b1-4)GlcNAc(b1-3)Gal(b1-4)GlcNAc(b1-2)Man(a1-6)]Man(b1-4)GlcNAc(b1-4)GlcNAc
Method in brief: as §1

B1: EUL D1A first (Oryza sativa) (protein)
chain: MFGFGHHHNQAPAAPSDPNQIFKIFCRANENYCLTVRDSAVVLAPVNPKDEHQHWFKDMRFSTKVKDGEGMPAFALVNKATGLAVKHSLGQSHPVKLVPFNPEYEDASVLWTESKDVGKGFRCIRMVNNTRLNLDAFHGDKDHGGVRDGTTVVLWEWCKGDNQSWKILPWGPEAHSSSPGAATILEQKLISEEDLNSAVDHHHHHH
In the case of B1, the “glycan array binding signal (z-score)” value [1] is reported as 0.395, the “glycan array binding signal (z-score)” value [2] is reported as 0.319 and the “glycan array binding signal (z-score)” value [3] is reported as -0.94. The “glycan array binding signal (z-score)” value [4] was -1.53, the “glycan array binding signal (z-score)” value [5] was -1.34 and the “glycan array binding signal (z-score)” value [6] was -1.05. For the same binder, the “glycan array binding signal (z-score)” value [7] was 0.258, the “glycan array binding signal (z-score)” value [8] was 0.138 and the “glycan array binding signal (z-score)” value [9] was -1.4. The “glycan array binding signal (z-score)” value [10] was -0.547, the “glycan array binding signal (z-score)” value [11] was -0.05 and the “glycan array binding signal (z-score)” value [12] was -0.707. For the same binder, the “glycan array binding signal (z-score)” value [13] was -0.979, the “glycan array binding signal (z-score)” value [14] was 1.9 and the “glycan array binding signal (z-score)” value [15] was 0.464. For the same binder, the “glycan array binding signal (z-score)” value [16] was 0.639, the “glycan array binding signal (z-score)” value [17] was 0.423 and the “glycan array binding signal (z-score)” value [18] was -0.567. For the same binder, the “glycan array binding signal (z-score)” value [19] was 0.655, the “glycan array binding signal (z-score)” value [20] was -0.045 and the “glycan array binding signal (z-score)” value [21] was 2.45. For the same binder, the “glycan array binding signal (z-score)” value [22] was -0.009.
